Data from patent publication US20240334941A1, “HIGH-EFFICACY NATURAL PRESERVATIVES” (BioVeritas, LLC, priority 2023, published 2024).

Key:
[1] = Loaf weight, volume and bake score (Example 6); conditions: for Specific Volume / Weight: loaf out of the oven
[2] = Descriptive sensory analysis of breads by trained panel (Example 5); conditions: 0.5% on flour; for crumb cell size (small to large) / crumb cell uniformity / crumb color (light to dark) / crust color (light to dark) / hand crumb springiness / hand side crust springiness / porosity: appearance and hand texture; for crumb adhesiveness to palate / crumb chewiness / crumb cohes. Of mass @ 4 to 7 chews / crumb hardness / crumb moistness / crumb tooth - packing / top crust chewiness: oral texture
[3] = crumb flavor, day 1, 0-15 scale
[4] = crumb flavor, day 7, 0-15 scale
[5] = crust flavor, day 1, 0-15 scale
[6] = crust flavor, day 7, 0-15 scale

SMILES: CCC(=O)[O-].CCC(=O)[O-].[Ca+2] [CCP, calcium propionate]
- bake score: Aroma (10) ([1]; 0.5 wt. %): 10
- bake score: Crumb Color (10) ([1]; 0.5 wt. %): 6
- bake score: Crust (10) ([1]; 0.5 wt. %): 8
- bake score: Grain (20) ([1]; 0.5 wt. %): 15
- bake score: Symmetry (10) ([1]; 0.5 wt. %): 8
- bake score: Taste (10) ([1]; 0.5 wt. %): 10
- bake score: Texture (20) ([1]; 0.5 wt. %): 16
- bake score: Total Score (100) ([1]; 0.5 wt. %): 80
- bake score: Uniformity (10) ([1]; 0.5 wt. %): 7
- bake score: Aroma (10) ([1]; 0.8 wt. %): 10
- bake score: Crumb Color (10) ([1]; 0.8 wt. %): 6
- bake score: Crust (10) ([1]; 0.8 wt. %): 7
- bake score: Grain (20) ([1]; 0.8 wt. %): 17
- bake score: Symmetry (10) ([1]; 0.8 wt. %): 8
- bake score: Taste (10) ([1]; 0.8 wt. %): 10
- bake score: Texture (20) ([1]; 0.8 wt. %): 16
- bake score: Total Score (100) ([1]; 0.8 wt. %): 82
- bake score: Uniformity (10) ([1]; 0.8 wt. %): 8
- Specific Volume ([1]; 0.5 wt. %): 5.313 cc/g
- Weight ([1]; 0.5 wt. %): 150 g
- Specific Volume ([1]; 0.8 wt. %): 5.603 cc/g
- Weight ([1]; 0.8 wt. %): 146 g
- crumb cell size (small to large) ([2]; day 1, 0-15 scale): 6.9f
- crumb cell uniformity ([2]; day 1, 0-15 scale): 9.4b
- crumb color (light to dark) ([2]; day 1, 0-15 scale): 3.0a
- crust color (light to dark) ([2]; day 1, 0-15 scale): 10.5cd
- hand crumb springiness ([2]; day 1, 0-15 scale): 12.3ab
- hand side crust springiness ([2]; day 1, 0-15 scale): 14.1a
- porosity ([2]; day 1, 0-15 scale): 11.7a
- crumb cell size (small to large) ([2]; day 7, 0-15 scale): 6.7f
- crumb cell uniformity ([2]; day 7, 0-15 scale): 10.1a
- crumb color (light to dark) ([2]; day 7, 0-15 scale): 3.0a
- crust color (light to dark) ([2]; day 7, 0-15 scale): 10.4 days
- hand crumb springiness ([2]; day 7, 0-15 scale): 12.4ab
- hand side crust springiness ([2]; day 7, 0-15 scale): 12.6b
- porosity ([2]; day 7, 0-15 scale): 11.0b
- aft int. [2, 3]: 2.1a
- astr mf [2, 3]: 1.8a
- salty [2, 3]: 3.1a
- sour [2, 3]: 0.6c
- sour aromatic [2, 3]: 1.6a
- sweet [2, 3]: 3.1a
- umami [2, 3]: 2.9a
- white flour paste [2, 3]: 1.2b
- yeasty/ fermented [2, 3]: 2.1b
- aft int. [2, 4]: 2.1a
- astr mf [2, 4]: 1.7a
- salty [2, 4]: 3.1a
- sour [2, 4]: 0.6c
- sour aromatic [2, 4]: 0.5c
- sweet [2, 4]: 3.1a
- umami [2, 4]: 2.8a
- white flour paste [2, 4]: 1.4a
- yeasty/ fermented [2, 4]: 2.0b
- aft int. [2, 5]: 2.1a
- astr mf [2, 5]: 2.0b
- bitter [2, 5]: 1.0a
- burned/ tstd [2, 5]: 1.4c
- salty [2, 5]: 3.0a
- sour [2, 5]: 1.9bc
- sour aromatic [2, 5]: 1.1 days
- sweet [2, 5]: 2.6b
- umami [2, 5]: 2.5bc
- white flour paste [2, 5]: 1.1a
- aft int. [2, 6]: 2.0a
- astr mf [2, 6]: 2.0b
- bitter [2, 6]: 0.9a
- burned/ tstd [2, 6]: 1.2 days
- salty [2, 6]: 3.0a
- sour [2, 6]: 1.9bc
- sour aromatic [2, 6]: 1.3cd
- sweet [2, 6]: 2.5b
- umami [2, 6]: 2.5bc
- white flour paste [2, 6]: 1.1a
- crumb adhesiveness to palate ([2]; day 1, 0-15 scale): 4.4c
- crumb chewiness ([2]; day 1, 0-15 scale): 10.8b
- crumb cohes. Of mass @ 4 to 7 chews ([2]; day 1, 0-15 scale): 13.1a
- crumb hardness ([2]; day 1, 0-15 scale): 4.2c
- crumb moistness ([2]; day 1, 0-15 scale): 11.4b
- crumb tooth - packing ([2]; day 1, 0-15 scale): 4.9c
- top crust chewiness ([2]; day 1, 0-15 scale): 10.1b
- crumb adhesiveness to palate ([2]; day 7, 0-15 scale): 5.4a
- crumb chewiness ([2]; day 7, 0-15 scale): 10.9b
- crumb cohes. Of mass @ 4 to 7 chews ([2]; day 7, 0-15 scale): 12.5b
- crumb hardness ([2]; day 7, 0-15 scale): 4.8b
- crumb moistness ([2]; day 7, 0-15 scale): 7.9e
- crumb tooth - packing ([2]; day 7, 0-15 scale): 5.7b
- top crust chewiness ([2]; day 7, 0-15 scale): 9.7c
